Screen size: about 300,000 compounds; about 3,700 (1.2%) were called active. Inconclusive results, whose numbers are uncertain, are shown with a selection of clear calls. Calls follow the shape of the full dose curve; tested in HEK293 cells. A potency beside an inconclusive call is a rough fit, not a confirmed value.
Experiment: qHTS for Inhibitors of binding or entry into cells for Lassa Virus; also: nearly all actives have a fitted effect of over 50% in size
Conditions: Lassa virus pseudotype entry inhibition, cell reporter; series mostly up to 37.9 µM
Potency is read from the fitted curve at half-maximal effect.

Q: With `Fc1ccc(C2c3cccn3CCN2C(=S)Nc2cccc(F)c2)cc1` (configuration not stated) as the molecule, how does the Potency read?
A: inconclusive: 10 µM [inhibitor, partial curve, poor fit]

Q: Which Potency does the source give for `Cc1ccc2oc(=O)c3cnn(CC(=O)Nc4ccc(Br)cc4C)c3c2c1` here?
A: inactive

Q: With `O=C(NCC1CCCO1)C(c1cccs1)N(Cc1cccs1)C(=O)c1ccc(-c2ccccc2)[nH]1` (configuration not stated) as the molecule, how does the Potency read?
A: inconclusive: 29.1 µM [inhibitor, single point]

Q: Which Potency does the source give for `CCc1c(C(=O)NCCc2ccc(OC)c(OC)c2)[nH]c(C)c1C(C)=O` here?
A: inactive

Q: For `COc1ccc(CCN(Cc2cc3cc(C)c(C)cc3nc2Cl)C(=O)C2CC2)cc1`, which Potency is on record?
A: inconclusive: 13 µM [inhibitor, single point]

Q: With `CCN1C(=O)c2ccccc2Sc2ccc(NC(=O)Nc3ccc(C(C)=O)cc3)cc21` as the molecule, how does the Potency read?
A: inactive

Q: Which Potency does the source give for `O=c1c2c3c(sc2nc(NCCO)n1CCc1ccccc1)CCCCC3` here?
A: inconclusive: 18.4 µM [inhibitor, partial curve, poor fit]

Q: For `CCOC(=O)c1ccc(COc2ccc(C(C)C)cc2)o1`, which Potency is on record?
A: inconclusive: 3.55 µM [activator, partial curve, poor fit]

Q: With `CCC(=O)Nc1sc(C(=O)Nc2ccccc2F)c(C)c1C(=O)OC` as the molecule, how does the Potency read?
A: inconclusive: 11.2 µM [inhibitor, single point]

Q: Which Potency does the source give for `Cc1ccc(-n2ncc3c(N4CCC(C)CC4)ncnc32)cc1C` here?
A: inactive

Q: With `O=c1cc(N2CCCCC2)c(-c2ccccc2)nn1Cc1ccc(Cl)cc1Cl` as the molecule, how does the Potency read?
A: inconclusive: 35.5 µM [inhibitor, single point]

Q: Which Potency does the source give for `CC(C)(C)c1ccc(-c2noc(-c3ccno3)n2)cc1` here?
A: inconclusive: 5.62 µM [inhibitor, single point]

Q: With `CCOC(=O)c1c(NC(=O)C2c3ccccc3Oc3ccccc32)sc(C(C)=O)c1C` as the molecule, how does the Potency read?
A: inconclusive: 16.4 µM [inhibitor, partial curve, poor fit]

Q: Which Potency does the source give for `Cc1sc2ncn(CC(=O)NCCCC(=O)Nc3ccc(C(C)C)cc3)c(=O)c2c1C` here?
A: inconclusive: 1.26 µM [inhibitor, single point]

Q: For `O=C(NCc1cccc(Br)c1)c1ccc(-n2cnc3cccnc32)cc1`, which Potency is on record?
A: inconclusive: 15.8 µM [activator, single point]

Q: With `CC(=O)c1cccc(S(=O)(=O)N2CCCC(c3nc4c(nnn4Cc4ccc(C)cc4)c(=O)[nH]3)C2)c1` (configuration not stated) as the molecule, how does the Potency read?
A: inconclusive: 31.6 µM [inhibitor, single point]

Q: With `CC[C@@]1(O)C(=O)OCc2c1cc1n(c2=O)Cc2cc3ccccc3nc2-1` as the molecule, how does the Potency read?
A: inconclusive: 0.082 µM [inhibitor, full curve]

Q: Which Potency does the source give for `Cc1nc2c(C(=O)N3CCN(C)CC3)cnn2c(C)c1Cc1ccc(Cl)cc1` here?
A: inactive

Q: With `Cc1ccc(CNC(=O)COCc2cc(-c3ccc4c(c3)OCO4)on2)cc1` as the molecule, how does the Potency read?
A: inconclusive: 5.01 µM [inhibitor, full curve]

Q: For `COc1ccc(-n2c(N)c(Br)c(=O)[nH]c2=O)cc1`, which Potency is on record?
A: inconclusive: 13 µM [activator, partial curve, poor fit]

Q: Which Potency does the source give for `CCOc1ccccc1N(CC(=O)NCCSc1ccccn1)S(=O)(=O)c1ccc(C)cc1` here?
A: inconclusive: 35.5 µM [inhibitor, single point]

Q: Which Potency does the source give for `CCCC(=O)NC(Oc1ccc(Cl)cc1Cl)C(Cl)(Cl)Cl` (configuration not stated) here?
A: inactive

Q: Which Potency does the source give for `CCOc1ccc(S(=O)(=O)c2cn(Cc3ccc(C)cc3)c3ccc(OC)cc3c2=O)cc1` here?
A: inconclusive: 12.6 µM [inhibitor, partial curve]

Q: With `CCC(C)c1ccc(NC(=O)C2CC2)cc1` (configuration not stated) as the molecule, how does the Potency read?
A: inactive

Q: For `COc1ccc(S(=O)(=O)N(C(=O)c2ccco2)c2cc3sc(=O)oc3c3ccccc23)cc1`, which Potency is on record?
A: inconclusive: 35.5 µM [inhibitor, single point]

Q: Which Potency does the source give for `O=C(CC1N=C2c3ccccc3N=C(SCc3ccc(Cl)cc3)N2C1=O)NC1CCCCC1` (configuration not stated) here?
A: inconclusive: 20 µM [inhibitor, single point]

Q: For `CCN1CCN(C(=O)c2ccccc2N(Cc2ccccc2)S(=O)(=O)c2ccc(C)cc2)CC1`, which Potency is on record?
A: inconclusive: 13 µM [inhibitor, partial curve, poor fit]

Q: Which Potency does the source give for `O=C(OCCC12CC3CC(CC(C3)C1)C2)c1ccc(NCc2cc(O)ccc2O)cc1` here?
A: active: 1.26 µM

Q: For `COc1ccc(NC(=O)Nc2cccc(C)n2)c(OC)c1`, which Potency is on record?
A: inactive

Q: Which Potency does the source give for `COc1cc(CN2CCNC(=O)C2CC(=O)NCCC2=CCCCC2)cc(OC)c1` (configuration not stated) here?
A: inactive

Q: For `Cc1c(CCNS(=O)(=O)c2ccccc2)sc2nc(-c3ccc(Cl)cc3)nn12`, which Potency is on record?
A: inconclusive: 11.2 µM [inhibitor, single point]

Q: With `CN1CCN(c2ccc(NC(=O)c3ccc4c(c3)OCCO4)cc2Cl)CC1` as the molecule, how does the Potency read?
A: inconclusive: 3.55 µM [activator, partial curve, poor fit]

Q: For `Cc1noc(C)c1C(=O)Nc1ccccc1C(=O)NCCc1ccccc1`, which Potency is on record?
A: inactive

Q: With `COc1ccc(CN(C)c2ncnc3sccc23)c(OC)c1OC` as the molecule, how does the Potency read?
A: inconclusive: 7.08 µM [inhibitor, partial curve]

Q: For `N#C/C(=C\c1ccc(OCc2ccc(C(=O)O)cc2)cc1)C(=O)N1CCOCC1`, which Potency is on record?
A: active: 1.84 µM

Q: With `COCC1CCCN(C(=O)c2cc(COc3ccc(C(C)=O)cc3)on2)C1` (configuration not stated) as the molecule, how does the Potency read?
A: inactive

Q: With `O=C(NC(Cc1ccccc1)C(=O)O)/C(=C/c1cccc([N+](=O)[O-])c1)NC(=O)c1cccc(Br)c1` (configuration not stated) as the molecule, how does the Potency read?
A: inactive

Q: For `O=C(CSc1nnc(CNC(=O)c2c(F)cccc2Cl)o1)Nc1ccc2c(c1)OCO2`, which Potency is on record?
A: inconclusive: 0.562 µM [activator, full curve, poor fit]

Q: Which Potency does the source give for `COc1cc(CNc2ccc3[nH]c(=O)[nH]c3c2)ccc1OCc1c(F)cccc1Cl` here?
A: inconclusive: 12.6 µM [inhibitor, partial curve, poor fit]

Q: With `CCCCOc1ccc(C(=O)OCC(=O)NC2CCCC2)cc1` as the molecule, how does the Potency read?
A: inconclusive: 20 µM [inhibitor, partial curve, poor fit]

Q: For `CCCOc1ccc(C(=O)N(Cc2cccs2)C2CCS(=O)(=O)C2)cc1` (configuration not stated), which Potency is on record?
A: inconclusive: 35.5 µM [inhibitor, single point]

Q: For `Cc1ccc(S(C)(=O)=NC(=O)c2cc(C)on2)cc1` (configuration not stated), which Potency is on record?
A: inconclusive: 31.6 µM [activator, single point]
